PubChem BioAssay AID1224830, NIAID – 2016
Purpose: 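Regulators of TLR4 signalling towards TNF-alpha in macrophage-like cells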 (primary screen). Cell system: human THP-1 monocytic leukaemia cells, TNF dual-luciferase reporter clone, PMA-differentiated to macrophage-like cells. Reagents: siRNA pool against human genes, 50 nM. Duration: LPS for 4 h, given about 3 days after siRNA transfection. Treatment: bacterial LPS (TLR4 ligand), 10 ng/ml. Read-out: 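Ratio of firefly to renilla light, scaled to the plate median and expressed as a robust z-score per replicate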. Reading the numbers: TNF reporter robust z-score: higher = stronger TNF reporter response to LPS. Rule for the call: 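a well is active when its z-score exceeds 2.8 or falls below -1.5; control wells carry no call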.
In all, the deposit lists about 18,000 reagents; below is a random part of them. About 2,900 of them (16%) count as active. 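Calls are made per well; low scores hint the gene aids the LPS response, high scores that it dampens it.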 Unmarked entries are inactive. Repeated entries: four replicate wells of each siRNA pool.

| gene knocked down | TNF reporter robust z-score |
| --- | --- |
| MAGEA10 (MAGE family member A10) | 0.31 |
| MAGEA10 (MAGE family member A10) | -0.29 |
| MAGEA10 (MAGE family member A10) | -0.08 |
| MAGEA10 (MAGE family member A10) | 0.18 |
| MED11 (mediator complex subunit 11) | -0.21 |
| MED11 (mediator complex subunit 11) | -0.29 |
| MED11 (mediator complex subunit 11) | -0.81 |
| MED11 (mediator complex subunit 11) | 0.24 |
| PRRG3 (proline rich and Gla domain 3) | 0.61 |
| PRRG3 (proline rich and Gla domain 3) | 0.51 |
| PRRG3 (proline rich and Gla domain 3) | -0.91 |
| PRRG3 (proline rich and Gla domain 3) | 0.93 |
| MSLN (mesothelin) | -0.17 |
| MSLN (mesothelin) | -0.58 |
| MSLN (mesothelin) | -0.44 |
| MSLN (mesothelin) | -0.33 |
| PCDH15 (protocadherin related 15) | -1.06 |
| PCDH15 (protocadherin related 15) | -0.75 |
| PCDH15 (protocadherin related 15) | -0.38 |
| PCDH15 (protocadherin related 15) | -0.16 |
| CPEB1 (cytoplasmic polyadenylation element binding protein 1) | -0.22 |
| CPEB1 (cytoplasmic polyadenylation element binding protein 1) | 0.11 |
| CPEB1 (cytoplasmic polyadenylation element binding protein 1) | 0.94 |
| CPEB1 (cytoplasmic polyadenylation element binding protein 1) | 3.87 (active) |
| ERGIC3 (ERGIC and golgi 3) | -1.41 |
| ERGIC3 (ERGIC and golgi 3) | -0.14 |
| ERGIC3 (ERGIC and golgi 3) | -0.08 |
| ERGIC3 (ERGIC and golgi 3) | 0.84 |
| VKORC1L1 (vitamin K epoxide reductase complex subunit 1L1) | 1.85 |
| VKORC1L1 (vitamin K epoxide reductase complex subunit 1L1) | 0.48 |
| VKORC1L1 (vitamin K epoxide reductase complex subunit 1L1) | 1.69 |
| VKORC1L1 (vitamin K epoxide reductase complex subunit 1L1) | 1.53 |
| PCDHB13 (protocadherin beta 13) | -0.35 |
| PCDHB13 (protocadherin beta 13) | -0.12 |
| PCDHB13 (protocadherin beta 13) | -0.14 |
| GCG (glucagon) | 0.61 |
| GCG (glucagon) | 4.04 (active) |
| GCG (glucagon) | -0.96 |
| GCG (glucagon) | 0.32 |
| LURAP1 (leucine rich adaptor protein 1) | 0.64 |
| LURAP1 (leucine rich adaptor protein 1) | -0.45 |
| LURAP1 (leucine rich adaptor protein 1) | -0.17 |
| LURAP1 (leucine rich adaptor protein 1) | 0.44 |
| DGAT1 (diacylglycerol O-acyltransferase 1) | 1.76 |
| DGAT1 (diacylglycerol O-acyltransferase 1) | 2.89 (active) |
| DGAT1 (diacylglycerol O-acyltransferase 1) | 2.66 |
| DGAT1 (diacylglycerol O-acyltransferase 1) | 4.15 (active) |
| SLC35E1 | 0.15 |
| SLC35E1 | 0.04 |
| SLC35E1 | 0.01 |
| SLC35E1 | 0.28 |
| PRDM13 (PR/SET domain 13) | -1.4 |
| PRDM13 (PR/SET domain 13) | -1.26 |
| PRDM13 (PR/SET domain 13) | -0.89 |
| PRDM13 (PR/SET domain 13) | -0.54 |

Continued; the last 12 above are carried over.
| gene knocked down | TNF reporter robust z-score |
| --- | --- |
| DGAT1 (diacylglycerol O-acyltransferase 1) | 1.76 |
| DGAT1 (diacylglycerol O-acyltransferase 1) | 2.89 (active) |
| DGAT1 (diacylglycerol O-acyltransferase 1) | 2.66 |
| DGAT1 (diacylglycerol O-acyltransferase 1) | 4.15 (active) |
| SLC35E1 | 0.15 |
| SLC35E1 | 0.04 |
| SLC35E1 | 0.01 |
| SLC35E1 | 0.28 |
| PRDM13 (PR/SET domain 13) | -1.4 |
| PRDM13 (PR/SET domain 13) | -1.26 |
| PRDM13 (PR/SET domain 13) | -0.89 |
| PRDM13 (PR/SET domain 13) | -0.54 |
| UNC119B (unc-119 lipid binding chaperone B) | -1.47 |
| UNC119B (unc-119 lipid binding chaperone B) | -1.24 |
| UNC119B (unc-119 lipid binding chaperone B) | -0.5 |
| UNC119B (unc-119 lipid binding chaperone B) | -1.43 |
| DCD (dermcidin) | -1.02 |
| DCD (dermcidin) | -0.44 |
| DCD (dermcidin) | -0.66 |
| DCD (dermcidin) | -0.85 |
| RXRG (retinoid X receptor gamma) | -0.19 |
| RXRG (retinoid X receptor gamma) | -0.46 |
| RXRG (retinoid X receptor gamma) | -0.09 |
| RXRG (retinoid X receptor gamma) | -0.79 |
| KCTD3 (potassium channel tetramerization domain containing 3) | 0.93 |
| KCTD3 (potassium channel tetramerization domain containing 3) | 2.01 |
| KCTD3 (potassium channel tetramerization domain containing 3) | 1.65 |
| KCTD3 (potassium channel tetramerization domain containing 3) | 1.25 |
| PPP1R1B (protein phosphatase 1 regulatory inhibitor subunit 1B) | 1.64 |
| PPP1R1B (protein phosphatase 1 regulatory inhibitor subunit 1B) | 2.43 |
| PPP1R1B (protein phosphatase 1 regulatory inhibitor subunit 1B) | 0.18 |
| PPP1R1B (protein phosphatase 1 regulatory inhibitor subunit 1B) | 1.2 |
| TSPAN2 (tetraspanin 2) | 1.11 |
| TSPAN2 (tetraspanin 2) | 0.68 |
| TSPAN2 (tetraspanin 2) | 1.24 |
| TSPAN2 (tetraspanin 2) | 0.32 |
| MAPK4 (mitogen-activated protein kinase 4) | 1.81 |
| MAPK4 (mitogen-activated protein kinase 4) | -0.54 |
| MAPK4 (mitogen-activated protein kinase 4) | -1.05 |
| MAPK4 (mitogen-activated protein kinase 4) | 0.03 |
| CDKN2B (cyclin dependent kinase inhibitor 2B) | -0.62 |
| CDKN2B (cyclin dependent kinase inhibitor 2B) | 0.43 |
| CDKN2B (cyclin dependent kinase inhibitor 2B) | 0.24 |
| CDKN2B (cyclin dependent kinase inhibitor 2B) | 1.07 |
| ATP6V0A4 (ATPase H+ transporting V0 subunit a4) | -1.08 |
| ATP6V0A4 (ATPase H+ transporting V0 subunit a4) | -1.7 (active) |
| ATP6V0A4 (ATPase H+ transporting V0 subunit a4) | -1.51 (active) |
| ATP6V0A4 (ATPase H+ transporting V0 subunit a4) | -1.19 |
| MKS1 (MKS transition zone complex subunit 1) | -0.04 |
| MKS1 (MKS transition zone complex subunit 1) | 2.88 (active) |
| MKS1 (MKS transition zone complex subunit 1) | 0.68 |
| MKS1 (MKS transition zone complex subunit 1) | 0.97 |
| CALCR (calcitonin receptor) | -1.59 (active) |
| CALCR (calcitonin receptor) | -0.11 |
| CALCR (calcitonin receptor) | -1.26 |
| CALCR (calcitonin receptor) | -0.14 |
| ZNF580 (zinc finger protein 580) | 0.95 |
| ZNF580 (zinc finger protein 580) | 0.59 |
| ZNF580 (zinc finger protein 580) | 0.03 |
| ZNF580 (zinc finger protein 580) | 1.23 |
| SFXN3 (sideroflexin 3) | -0.63 |
| SFXN3 (sideroflexin 3) | 0.11 |
| SFXN3 (sideroflexin 3) | -0.47 |
| SFXN3 (sideroflexin 3) | 0.16 |
| CCR4 (C-C motif chemokine receptor 4) | 0.09 |
| CCR4 (C-C motif chemokine receptor 4) | 0.74 |
| CCR4 (C-C motif chemokine receptor 4) | 0.83 |
| CCR4 (C-C motif chemokine receptor 4) | -0.76 |
